Data as given in PubChem BioAssay AID493246 (Drosophila RNAi Screening Center, 2011)

Test: 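Genes fly cells need to grow and stay alive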 (primary screen)
Cell system: Drosophila Kc and S2R+ cells
Reagent: long dsRNA against Drosophila genes
Measurement: 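Cell number per well after knock-down, printed as raw plate values; calls were based on per-plate z-scores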
Scale: Kc cell number and S2R+ cell number: higher = more cells remaining
Active means: 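Counted as a hit if cell number falls by a z-score of at least 3 within its plate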
The deposit covers about 21,000 reagents; below is a random part of those with a known target gene and a result. In the full data, 429 (2%) got an active call. 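Values are raw and not normalised between plates; calls rest on per-plate z-scores that were not deposited.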 The numbers tell different reagents against one gene apart. A plus sign joins genes that one reagent is predicted to hit. The record does not give: the amount of reagent, the time to read-out.

| gene | reagent no. | Kc cell number, rep 1 | Kc cell number, rep 2 | S2R+ cell number, rep 1 | S2R+ cell number, rep 2 | call |
| --- | --- | --- | --- | --- | --- | --- |
| iPLA2-VIA (GeneID 39160) | 1 | 1.47e6 | 1.47e6 | 1.41e6 | 1.19e6 | inactive |
| CASK (GeneID 42567) | 1 | 1.32e6 | 1.28e6 | 1.02e6 | 1.15e6 | inactive |
| CASK (GeneID 42567) | 2 | 1.47e6 | 1.52e6 | 1.16e6 | 1.16e6 | inactive |
| CASK (GeneID 42567) | 3 | 1.32e6 | 1.43e6 | 9.89e5 | 1.08e6 | inactive |
| CG4955 (GeneID 32692) | 1 | 1.57e6 | 1.62e6 | 1.10e6 | 1.18e6 | inactive |
| kl-5 (retired record) (GeneID 3355175) | 1 | 1.59e6 | 1.58e6 | 1.12e6 | 1.20e6 | inactive |
| kl-5 (retired record) (GeneID 3355175) | 2 | 1.26e6 | 1.47e6 | 1.17e6 | 1.07e6 | inactive |
| kl-5 (retired record) (GeneID 3355175) | 3 | 1.19e6 | 1.47e6 | 1.12e6 | 1.18e6 | inactive |
| kl-5 (retired record) (GeneID 3355175) | 4 | 1.60e6 | 1.62e6 | 1.06e6 | 1.19e6 | inactive |
| Axud1 (GeneID 33419) | 1 | 1.35e6 | 1.45e6 | 1.04e6 | 1.14e6 | inactive |
| mip130 (GeneID 31153) | 1 | 1.51e6 | 1.50e6 | 1.01e6 | 1.13e6 | inactive |
| Arp2 (GeneID 32623) | 1 | 1.42e6 | 1.41e6 | 1.02e6 | 1.11e6 | inactive |
| dpr18 (GeneID 32572) | 1 | 1.56e6 | 1.58e6 | 1.12e6 | 1.23e6 | inactive |
| Rfx (GeneID 41266) | 1 | 1.52e6 | 1.49e6 | 1.20e6 | 1.26e6 | inactive |
| Tmx3 (GeneID 39775) | 1 | 2.01e6 | 1.89e6 | 1.32e6 | 1.47e6 | inactive |
| Pvf3 (GeneID 33995) | 1 | 1.61e6 | 1.60e6 | 1.20e6 | 1.30e6 | inactive |
| Pvf3 (GeneID 33995) | 2 | 1.60e6 | 1.44e6 | 1.18e6 | 1.34e6 | inactive |
| Pvf3 (GeneID 33995) | 3 | 1.64e6 | 1.57e6 | 1.11e6 | 1.27e6 | inactive |
| Pvf3 (GeneID 33995) | 4 | 1.57e6 | 1.48e6 | 1.08e6 | 1.24e6 | inactive |
| CG31391 (GeneID 41280) | 1 | 1.41e6 | 1.50e6 | 1.18e6 | 1.27e6 | inactive |
| nej (GeneID 43856) | 1 | 1.42e6 | 1.40e6 | 8.20e5 | 8.46e5 | inactive |
| nej (GeneID 43856) | 2 | 3.24e5 | – | 5.31e5 | – | active |
| RpL7-like + CG34164 | 1 | 1.39e6 | 1.35e6 | 8.73e5 | 9.24e5 | inactive |
| RpL7-like + CG34164 | 2 | 1.60e6 | 1.62e6 | 1.25e6 | 1.36e6 | inactive |
| Ir7d (GeneID 7354416) | 1 | 1.62e6 | 1.69e6 | 1.09e6 | 1.20e6 | inactive |
| ThrRS (GeneID 45784) | 1 | 1.35e6 | 1.41e6 | 1.11e6 | 1.16e6 | inactive |
| Tango6 (GeneID 35155) | 1 | 1.34e6 | 1.46e6 | 1.37e6 | 1.29e6 | inactive |
| CG13369 (GeneID 31007) | 1 | 1.42e6 | 1.45e6 | 9.02e5 | 9.82e5 | inactive |
| sev (GeneID 32039) | 1 | 1.55e6 | 1.45e6 | 1.06e6 | 1.17e6 | inactive |
| Capr (GeneID 59172) | 1 | 1.30e6 | 1.39e6 | 1.31e6 | 1.41e6 | inactive |
| CG11902 (GeneID 43070) | 1 | 1.73e6 | 1.74e6 | 1.05e6 | 1.23e6 | inactive |
| Mitf (GeneID 3885647) | 1 | 1.47e6 | 1.51e6 | 1.07e6 | 1.16e6 | inactive |
| Mitf (GeneID 3885647) | 2 | 1.52e6 | 1.56e6 | 1.03e6 | 1.15e6 | inactive |
| CG32809 (GeneID 31121) | 1 | 1.70e6 | 1.72e6 | 1.11e6 | 1.18e6 | inactive |
| CG32809 (GeneID 31121) | 2 | 1.51e6 | 1.49e6 | 1.05e6 | 1.19e6 | inactive |
| CG32809 (GeneID 31121) | 3 | 4.71e5 | – | 7.44e5 | – | inactive |
| cd (GeneID 42681) | 1 | 1.44e6 | 1.55e6 | 9.62e5 | 1.11e6 | inactive |
| mRRF1 (GeneID 39067) | 1 | 1.56e6 | 1.60e6 | 1.16e6 | 1.18e6 | inactive |
| Tret1-1 (GeneID 36248) | 1 | 1.51e6 | 1.51e6 | 1.19e6 | 1.33e6 | inactive |
| Tret1-1 (GeneID 36248) | 2 | 1.40e6 | 1.51e6 | 1.17e6 | 1.31e6 | inactive |
| Tbc1d8-9 (GeneID 40361) | 1 | 1.59e6 | 1.55e6 | 1.46e6 | 1.46e6 | inactive |
| LManII (GeneID 34437) | 1 | 1.28e6 | 1.37e6 | 1.21e6 | 1.35e6 | inactive |
| CG15107 (GeneID 59128) | 1 | 1.67e6 | 1.75e6 | 1.25e6 | 1.49e6 | inactive |
| CG14823 (GeneID 38772) | 1 | 1.44e6 | 1.38e6 | 1.24e6 | 1.17e6 | inactive |
| CG32206 (GeneID 40105) | 1 | 1.42e6 | 1.42e6 | 9.67e5 | 1.11e6 | inactive |
| CG32206 (GeneID 40105) | 2 | 1.41e6 | 1.51e6 | 1.29e6 | 1.34e6 | inactive |
| CG32206 (GeneID 40105) | 3 | 1.37e6 | 1.46e6 | 1.30e6 | 1.33e6 | inactive |
| CG32206 (GeneID 40105) | 4 | 1.41e6 | 1.42e6 | 1.33e6 | 1.38e6 | inactive |
| CG32206 (GeneID 40105) | 5 | 1.43e6 | 1.46e6 | 1.25e6 | 1.37e6 | inactive |
| Golgin245 (GeneID 37702) | 1 | 1.50e6 | 1.66e6 | 1.09e6 | 1.17e6 | inactive |
| hth (GeneID 41273) | 1 | 1.50e6 | 1.74e6 | 1.38e6 | 1.53e6 | inactive |
| CG8861 (GeneID 41109) | 1 | 1.63e6 | 1.65e6 | 1.13e6 | 1.38e6 | inactive |
| CG8861 (GeneID 41109) | 2 | 1.75e6 | 1.72e6 | 1.27e6 | 1.37e6 | inactive |
| CG6136 (GeneID 41877) | 1 | 1.59e6 | 1.52e6 | 1.28e6 | 1.44e6 | inactive |
| CG14826 (GeneID 38791) | 1 | 1.59e6 | 1.53e6 | 1.21e6 | 1.17e6 | inactive |
| CG31538 (GeneID 318790) | 1 | 1.38e6 | 1.49e6 | 1.07e6 | 1.19e6 | inactive |
| CG13036 (retired record) (GeneID 39823) | 1 | 1.46e6 | 1.44e6 | 1.16e6 | 1.34e6 | inactive |
| CG11378 (GeneID 31060) | 1 | 1.57e6 | 1.63e6 | 1.09e6 | 1.16e6 | inactive |
| CG7881 (GeneID 35521) | 1 | 1.50e6 | 1.50e6 | 1.28e6 | 1.46e6 | inactive |
